Results are given in words; binding and its absence hold for the method and conditions named. Where a sequence is shown, tags or fusion partners need not be part of it.
Experiments:
Test in all cases: SPR; Biacore T200, CM5 chip; BMP2, BMP6 or BMP2/6 immobilised by amine coupling (50 μg/ml); FLAG-ERFE variants made in HEK293T as analyte; HBS-EP (0.15 M NaCl, 3 mM EDTA, 0.005% P20, 0.01 M Hepes pH 7.4), 50 μl/min; KD = koff/kon at five concentrations; the paper calls the constants avidities where binding is presumed multivalent; only the target purified
[1] = target: T1, BMP2 homodimer (UniProt P12643)
T1 sequence: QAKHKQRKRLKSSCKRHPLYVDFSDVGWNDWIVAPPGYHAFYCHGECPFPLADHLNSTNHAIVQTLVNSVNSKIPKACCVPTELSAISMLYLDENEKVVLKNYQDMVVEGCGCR

Chains of the proteins cited; added tags and fusions are not shown. Residues count along the entry.
UniProt P22004, residues 375-513: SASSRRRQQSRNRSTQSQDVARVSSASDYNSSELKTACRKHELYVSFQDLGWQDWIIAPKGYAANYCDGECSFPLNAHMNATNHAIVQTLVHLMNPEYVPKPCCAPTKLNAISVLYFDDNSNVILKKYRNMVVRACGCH

[2] = target: BMP2/6 heterodimer (UniProt P12643)
[3] = target: BMP6 homodimer (UniProt P22004)

Measured: binding

B1: ERFE C terminus (globular head), 186-354, FLAG-tagged (domain or fragment, UniProt Q4G0M1 186-354)
chain: LALLAAPLAPGPRAPRVEAAFLCRLRRDALVERRALHELGVYYLPDAEGAFRRGPGLNLTSGQYRAPVAGFYALAATLHVALGEPPRRGPPRPRDHLRLLICIQSRCQRNASLEAIMGLESSSELFTISVNGVLYLQMGQWTSVFLDNASGCSLTVRSGSHFSAVLLGV
no binding: [1] | [2] | [3]

Source: publication PMC10692919
